# Experimental data reported in article PMC9793359.
# These are yes or no findings as the source states them, for the method shown. In cells and extracts the contact can be indirect. These calls come from enrichment with a bait or labelling near it, and not all partners need be listed.
# B1: ETFA, endogenous (protein, UniProt P13804 20-333)
# chain: QSTLVIAEHANDSLAPITLNTITAATRLGGEVSCLVAGTKCDKVAQDLCKVAGIAKVLVAQHDVYKGLLPEELTPLILATQKQFNYTHICAGASAFGKNLLPRVAAKLEVAPISDIIAIKSPDTFVRTIYAGNALCTVKCDEKVKVFSVRGTSFDAAATSGGSASSEKASSTSPVEISEWLDQKLTKSDRPELTGAKVVVSGGRGLKSGENFKLLYDLADQLHAAVGASRAAVDAGFVPNDMQVGQTGKIVAPELYIAVGISGAIQHLAGMKDSKTIVAINKDPEAPIFQVADYGIVADLFKVVPEMTEILKKK
# Molecular target: SARS-CoV-2 RdRp complex (Flag-nsp12, Flag-nsp7 and Flag-nsp8 co-expressed) (SARS-CoV-2) (UniProt P0DTD1)
# Assay: affinity purification with mass spectrometry
binder,measurement,value
B1,binding,binds
